From PubChem BioAssay AID1588
Hit rate of the full screen: of about 1,000 compounds, fewer than 10 were called active. The source calls these results inconclusive, neither active nor inactive. How the calls were made is not given here.

Experiment: polyglutamine aggregation reduction, turbidity readout, qthio, single concentration 25 µM screen (AID 1588)
Details: at 25 µM, hits give low values

| Compound | aggregation (% of control) |
| --- | --- |
| CN(CCCl)CCCl | inconclusive: 102% |
